Reference: patent US6709814B1, “Peptides causing formation of compact structures” (Rigel Pharmaceuticals, Inc., priority 1998, dated 2004)
Where “and” joins values, the source holds several entries; their conditions need not be identical. Equal entries are not always repeated. Not every detail of the peptide structures is certain; ends, links or a residue may be inferred. Ends that are not written are not given here.

Legend:
[1] = Deuterium exchange followed by mass spectrometry
[2] = Circular dichroism: thermal denaturation and deconvolution; type: physicochemical; details: CD spectrum at 225 nm, pH 7.5

EFLIVKSSTKSIPPQSEFLIVKS [EFLIVKS-STKSIPPQS-EFLIVKS]
slowly exchanging protons (not exchanged within ca. 1 hour) ([1]; pH 5): ≤ 3 | total exchangeable protons ([1]; pH 5, dilution into D2O): 36 and 36.1 ± 1.9 | proton exchange amplitude, fast phase ([1]; pH 5, fastest exchange, lasting at most ca. 1 hour): 33 and 32.6 ± 3.8 | Tm (thermal melting of CD signal) [2]: 39.6±1 °C
